According to paper doi:10.1101/2024.05.23.595491 (bioRxiv, 2024):
These are yes or no findings as the source states them, for the method shown. For some of these results: Binding seen in cells or lysates may run through a third protein. Some entries that bind do so weakly or less than the wild type. Tags and fused reporters may be left off the sequences shown.

Sequences of proteins named here, by UniProt entry; tags and fusion partners are left off. Residues count along the entry.
UniProt P04756, residues 317-428: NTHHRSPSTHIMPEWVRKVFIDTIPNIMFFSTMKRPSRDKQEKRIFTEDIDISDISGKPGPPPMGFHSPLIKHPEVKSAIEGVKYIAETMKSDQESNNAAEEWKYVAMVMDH

Experiments:
[1] = target: T1, SH3BP2-FLAG (full-length) (mouse, UniProt Q06649 1-559); assay: co-IP
T1 sequence: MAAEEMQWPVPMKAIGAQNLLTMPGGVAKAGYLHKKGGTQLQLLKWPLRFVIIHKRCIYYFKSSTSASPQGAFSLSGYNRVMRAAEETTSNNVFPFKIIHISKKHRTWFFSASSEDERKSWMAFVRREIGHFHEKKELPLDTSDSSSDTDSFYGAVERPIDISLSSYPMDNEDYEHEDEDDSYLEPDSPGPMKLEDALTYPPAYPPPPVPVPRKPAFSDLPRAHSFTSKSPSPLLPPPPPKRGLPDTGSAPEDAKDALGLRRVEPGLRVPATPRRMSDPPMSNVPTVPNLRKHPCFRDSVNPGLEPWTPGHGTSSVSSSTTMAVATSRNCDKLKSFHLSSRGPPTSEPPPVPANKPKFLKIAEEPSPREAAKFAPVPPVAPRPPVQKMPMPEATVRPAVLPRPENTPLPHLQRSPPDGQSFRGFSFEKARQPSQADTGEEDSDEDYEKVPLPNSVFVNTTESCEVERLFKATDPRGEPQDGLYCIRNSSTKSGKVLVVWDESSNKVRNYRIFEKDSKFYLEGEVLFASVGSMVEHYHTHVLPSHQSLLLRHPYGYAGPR

[2] = target: T2, PH domain of SH3BP2 fused to FLAG (mouse) (UniProt Q06649); assay: co-IP
T2 sequence: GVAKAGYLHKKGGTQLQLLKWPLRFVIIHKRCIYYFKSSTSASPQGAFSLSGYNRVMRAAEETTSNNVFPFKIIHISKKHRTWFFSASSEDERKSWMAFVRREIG

[3] = target: T3, SH2 domain of SH3BP2 fused to FLAG (mouse) (UniProt Q06649); assay: co-IP
T3 sequence: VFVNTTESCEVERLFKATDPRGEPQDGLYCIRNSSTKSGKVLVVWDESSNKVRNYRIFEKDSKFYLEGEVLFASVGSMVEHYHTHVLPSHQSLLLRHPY

[4] = target: T4, AChRα cytoplasmic domain peptide P3 (mouse); assay: pull-down
T4 sequence (peptide, N-terminal biotin): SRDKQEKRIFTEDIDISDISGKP

[5] = target: T5, AChRα cytoplasmic domain peptide P4 (mouse); assay: pull-down
T5 sequence (peptide, N-terminal biotin): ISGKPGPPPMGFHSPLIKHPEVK

[6] = target: T6, AChRα cytoplasmic domain peptide P5 (mouse); assay: pull-down
T6 sequence (peptide, N-terminal biotin): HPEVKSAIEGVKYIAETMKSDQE

[7] = target: T7, AChRα cytoplasmic domain peptide P6 (mouse); assay: pull-down
T7 sequence (peptide, N-terminal biotin): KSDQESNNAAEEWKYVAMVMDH

[8] = target: T8, AChRα cytoplasmic domain peptide P1 (mouse); assay: pull-down
T8 sequence (peptide, N-terminal biotin): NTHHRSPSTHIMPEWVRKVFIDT

[9] = target: T9, αDB1 peptide Y713-P (phosphorylated Y713) (mouse); assay: pull-down
T9 sequence (peptide, phosphotyrosine at Y713 (pY); N-terminal DEST–Biotin–Ahx; C-terminal amide (NH2)): TQPEDGNYENESVRQ

[10] = target: T10, AChRα cytoplasmic domain peptide P2 (mouse); assay: pull-down
T10 sequence (peptide, N-terminal biotin): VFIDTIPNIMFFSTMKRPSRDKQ

[11] = target: T11, β-dystroglycan cytoplasmic domain fused to GFP (mouse) (UniProt Q62165); assay: co-IP
T11 sequence: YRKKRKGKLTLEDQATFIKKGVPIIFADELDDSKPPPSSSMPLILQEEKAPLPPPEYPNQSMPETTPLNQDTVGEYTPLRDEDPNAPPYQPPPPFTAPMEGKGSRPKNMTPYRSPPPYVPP

[12] = target: T12, SH3BP2-MYC (mouse) (UniProt Q06649); assay: co-IP
T12 sequence: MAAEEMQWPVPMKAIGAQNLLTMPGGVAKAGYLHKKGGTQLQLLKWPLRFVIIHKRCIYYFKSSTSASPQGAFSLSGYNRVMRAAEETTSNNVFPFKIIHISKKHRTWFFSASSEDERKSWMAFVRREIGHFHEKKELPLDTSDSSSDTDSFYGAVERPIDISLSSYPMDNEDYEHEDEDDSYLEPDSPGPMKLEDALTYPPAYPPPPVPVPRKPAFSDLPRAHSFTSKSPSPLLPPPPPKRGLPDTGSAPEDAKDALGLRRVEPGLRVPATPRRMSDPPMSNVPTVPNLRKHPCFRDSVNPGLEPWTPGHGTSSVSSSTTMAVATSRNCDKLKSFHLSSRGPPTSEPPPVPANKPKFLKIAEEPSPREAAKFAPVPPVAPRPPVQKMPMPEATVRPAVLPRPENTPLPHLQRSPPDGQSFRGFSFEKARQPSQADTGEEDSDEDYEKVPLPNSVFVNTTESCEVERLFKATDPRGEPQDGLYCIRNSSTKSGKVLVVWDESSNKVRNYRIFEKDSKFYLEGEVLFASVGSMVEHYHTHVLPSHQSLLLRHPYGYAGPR

[13] = target: T13, αDB1 peptide Y730 (unphosphorylated) (mouse); assay: pull-down
T13 sequence (peptide, N-terminal DEST–Biotin–Ahx; C-terminal amide (NH2)): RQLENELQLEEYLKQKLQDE

[14] = target: T14, αDB1 peptide Y730-P (phosphorylated Y730) (mouse); assay: pull-down
T14 sequence (peptide, phosphotyrosine at Y730 (pY); N-terminal DEST–Biotin–Ahx; C-terminal amide (NH2)): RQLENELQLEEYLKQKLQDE

“cytAChRα-GFP (from UniProt P04756 317-428) (domain or fragment)” was tested, and the binding [1] was “binds”, the binding [2] was “binds” and the binding [3] was “binds”.

B1: Rapsyn-mCherry (protein, UniProt P12672 1-412)
chain: MGQDQTKQQIEKGLQLYQSNQTEKALQVWMKVLEKGSDLVGRFRVLGCLVTAHSEMGRYKEMLKFAVVQIDTARGLEDADFLLESYLNLARSNEKLCEFHKTISYCKTCLGLPGTRAGAQLGGQVSLSMGNAFLGLSLFQKALESFEKALRYAHNNDDTMLECRVCCSLGSFYAQVKDYEKALFFPCKAAELVNDYGKGWSLKYRAMSQYHMAVAYRLLGHLGSAMECCEESMKIALQHGDRPLQALCLLCFADIHRSRGDLETAFPRYDSAMSIMTEIGNRLGQVHVLLGVAKCWMARKVQDKALDAIEKAQDLAEEVGNKLSQLKLHCLSESIYRSKGLQRELRTHVVRFHECVEETELYCGLCGESIGERNSRLQALPCSHIFHLRCLQNNGTRSCPNCRRSSMKPGFV
With B1 the binding [4] was “binds”, the binding [5] was “binds” and the binding [6] was “binds”. For the same molecule, the binding [7] was “binds”.

B2: cytAChRγ-GFP (domain or fragment, UniProt P04760 330-476)
chain: SLRSPHTHSMARGVRKLFLRLLPQLLRMHVRPLAPAAVQDARFRLQNGSSSGWPIMAREEGDLCLPRSELLFRQRQRNGLVQAVLEKLENGPEVRQSQEFCGSLKQASPAIQACVDACNLMARARRQQSHFDSGNEEWLLVGRVLDR
In the case of B2, the binding [1] is reported as “binds”.

B3: SH2 domain of SH3BP2 fused to FLAG (domain or fragment, UniProt Q06649 455-553)
chain: VFVNTTESCEVERLFKATDPRGEPQDGLYCIRNSSTKSGKVLVVWDESSNKVRNYRIFEKDSKFYLEGEVLFASVGSMVEHYHTHVLPSHQSLLLRHPY
B3 was tested, and the binding [8] was “binds” and the binding [9] was “binds”.

B4: SH3BP2-FLAG (full-length) (protein, UniProt Q06649 1-559)
chain: MAAEEMQWPVPMKAIGAQNLLTMPGGVAKAGYLHKKGGTQLQLLKWPLRFVIIHKRCIYYFKSSTSASPQGAFSLSGYNRVMRAAEETTSNNVFPFKIIHISKKHRTWFFSASSEDERKSWMAFVRREIGHFHEKKELPLDTSDSSSDTDSFYGAVERPIDISLSSYPMDNEDYEHEDEDDSYLEPDSPGPMKLEDALTYPPAYPPPPVPVPRKPAFSDLPRAHSFTSKSPSPLLPPPPPKRGLPDTGSAPEDAKDALGLRRVEPGLRVPATPRRMSDPPMSNVPTVPNLRKHPCFRDSVNPGLEPWTPGHGTSSVSSSTTMAVATSRNCDKLKSFHLSSRGPPTSEPPPVPANKPKFLKIAEEPSPREAAKFAPVPPVAPRPPVQKMPMPEATVRPAVLPRPENTPLPHLQRSPPDGQSFRGFSFEKARQPSQADTGEEDSDEDYEKVPLPNSVFVNTTESCEVERLFKATDPRGEPQDGLYCIRNSSTKSGKVLVVWDESSNKVRNYRIFEKDSKFYLEGEVLFASVGSMVEHYHTHVLPSHQSLLLRHPYGYAGPR
B4 was tested, and the binding [8] was “binds”, the binding [10] was “binds” and the binding [4] was “binds”. The binding [5] was “no binding”, the binding [6] was “no binding” and the binding [7] was “no binding”. For the same molecule, the binding [11] was “binds”.

B5: EGFP-SH3BP2 (protein, UniProt Q06649 1-559)
chain: MAAEEMQWPVPMKAIGAQNLLTMPGGVAKAGYLHKKGGTQLQLLKWPLRFVIIHKRCIYYFKSSTSASPQGAFSLSGYNRVMRAAEETTSNNVFPFKIIHISKKHRTWFFSASSEDERKSWMAFVRREIGHFHEKKELPLDTSDSSSDTDSFYGAVERPIDISLSSYPMDNEDYEHEDEDDSYLEPDSPGPMKLEDALTYPPAYPPPPVPVPRKPAFSDLPRAHSFTSKSPSPLLPPPPPKRGLPDTGSAPEDAKDALGLRRVEPGLRVPATPRRMSDPPMSNVPTVPNLRKHPCFRDSVNPGLEPWTPGHGTSSVSSSTTMAVATSRNCDKLKSFHLSSRGPPTSEPPPVPANKPKFLKIAEEPSPREAAKFAPVPPVAPRPPVQKMPMPEATVRPAVLPRPENTPLPHLQRSPPDGQSFRGFSFEKARQPSQADTGEEDSDEDYEKVPLPNSVFVNTTESCEVERLFKATDPRGEPQDGLYCIRNSSTKSGKVLVVWDESSNKVRNYRIFEKDSKFYLEGEVLFASVGSMVEHYHTHVLPSHQSLLLRHPYGYAGPR
For B5, the binding [12] was “binds”.

B6: SH3BP2-MYC (protein, UniProt Q06649 1-559)
chain: MAAEEMQWPVPMKAIGAQNLLTMPGGVAKAGYLHKKGGTQLQLLKWPLRFVIIHKRCIYYFKSSTSASPQGAFSLSGYNRVMRAAEETTSNNVFPFKIIHISKKHRTWFFSASSEDERKSWMAFVRREIGHFHEKKELPLDTSDSSSDTDSFYGAVERPIDISLSSYPMDNEDYEHEDEDDSYLEPDSPGPMKLEDALTYPPAYPPPPVPVPRKPAFSDLPRAHSFTSKSPSPLLPPPPPKRGLPDTGSAPEDAKDALGLRRVEPGLRVPATPRRMSDPPMSNVPTVPNLRKHPCFRDSVNPGLEPWTPGHGTSSVSSSTTMAVATSRNCDKLKSFHLSSRGPPTSEPPPVPANKPKFLKIAEEPSPREAAKFAPVPPVAPRPPVQKMPMPEATVRPAVLPRPENTPLPHLQRSPPDGQSFRGFSFEKARQPSQADTGEEDSDEDYEKVPLPNSVFVNTTESCEVERLFKATDPRGEPQDGLYCIRNSSTKSGKVLVVWDESSNKVRNYRIFEKDSKFYLEGEVLFASVGSMVEHYHTHVLPSHQSLLLRHPYGYAGPR
For B6, the binding [13] was “no binding” and the binding [14] was “no binding”.

B7: PH domain of SH3BP2 fused to FLAG (domain or fragment, UniProt Q06649 26-130)
chain: GVAKAGYLHKKGGTQLQLLKWPLRFVIIHKRCIYYFKSSTSASPQGAFSLSGYNRVMRAAEETTSNNVFPFKIIHISKKHRTWFFSASSEDERKSWMAFVRREIG
B7 was tested, and the binding [4] was “binds” and the binding [9] was “no binding”.
